The supplement of paper PMC10849652
Some of the results follow. Residues, ends and D or L forms follow the SMILES beside them. *: point of attachment. Cbz = O=C(OCc1ccccc1)*

By UniProt entry, the sequences of proteins in these tests, tags left out. Where a name states a change or a piece, a line headed by the entry shows the natural chain unless it says otherwise.
UniProt P32119: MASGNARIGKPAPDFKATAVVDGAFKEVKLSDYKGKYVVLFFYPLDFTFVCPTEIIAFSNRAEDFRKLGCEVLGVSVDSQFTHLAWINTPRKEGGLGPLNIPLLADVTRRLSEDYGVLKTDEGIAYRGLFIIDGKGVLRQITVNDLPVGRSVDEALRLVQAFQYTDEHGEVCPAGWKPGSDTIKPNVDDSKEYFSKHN
UniProt Q14558: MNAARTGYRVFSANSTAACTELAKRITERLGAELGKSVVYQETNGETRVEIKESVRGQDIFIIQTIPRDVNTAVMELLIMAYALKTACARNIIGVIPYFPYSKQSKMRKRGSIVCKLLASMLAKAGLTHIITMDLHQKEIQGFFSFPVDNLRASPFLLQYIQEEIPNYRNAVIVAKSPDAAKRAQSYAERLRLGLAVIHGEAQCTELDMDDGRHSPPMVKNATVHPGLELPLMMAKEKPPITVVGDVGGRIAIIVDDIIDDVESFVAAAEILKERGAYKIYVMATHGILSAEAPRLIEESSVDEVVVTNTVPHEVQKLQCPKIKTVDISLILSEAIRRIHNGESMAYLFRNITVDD
UniProt Q9ULR3: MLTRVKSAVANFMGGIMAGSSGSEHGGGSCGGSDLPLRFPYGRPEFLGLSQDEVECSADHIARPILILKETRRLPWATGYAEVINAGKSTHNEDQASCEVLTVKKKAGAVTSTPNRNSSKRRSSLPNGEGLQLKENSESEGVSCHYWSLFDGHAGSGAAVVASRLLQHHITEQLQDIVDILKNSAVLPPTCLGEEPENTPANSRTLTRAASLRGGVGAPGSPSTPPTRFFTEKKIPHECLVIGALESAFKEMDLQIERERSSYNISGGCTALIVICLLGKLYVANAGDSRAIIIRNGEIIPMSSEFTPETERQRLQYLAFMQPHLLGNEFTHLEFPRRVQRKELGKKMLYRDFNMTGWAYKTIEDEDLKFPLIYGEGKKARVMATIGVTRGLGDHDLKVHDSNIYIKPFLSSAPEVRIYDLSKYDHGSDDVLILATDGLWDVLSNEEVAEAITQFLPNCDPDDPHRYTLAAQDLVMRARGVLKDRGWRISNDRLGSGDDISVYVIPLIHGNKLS
UniProt Q66LE6: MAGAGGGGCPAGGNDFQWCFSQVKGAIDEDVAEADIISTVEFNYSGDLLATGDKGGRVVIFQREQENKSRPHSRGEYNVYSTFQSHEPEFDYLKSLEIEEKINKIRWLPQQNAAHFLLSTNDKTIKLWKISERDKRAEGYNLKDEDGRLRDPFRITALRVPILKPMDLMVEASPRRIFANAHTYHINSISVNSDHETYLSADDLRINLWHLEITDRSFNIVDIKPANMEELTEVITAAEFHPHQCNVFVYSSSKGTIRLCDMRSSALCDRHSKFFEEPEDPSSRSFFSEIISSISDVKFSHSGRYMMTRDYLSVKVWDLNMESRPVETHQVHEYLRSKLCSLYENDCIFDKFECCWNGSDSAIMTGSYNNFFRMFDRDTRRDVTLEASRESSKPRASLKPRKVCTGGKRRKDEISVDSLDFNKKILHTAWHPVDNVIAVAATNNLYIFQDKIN
UniProt P53041: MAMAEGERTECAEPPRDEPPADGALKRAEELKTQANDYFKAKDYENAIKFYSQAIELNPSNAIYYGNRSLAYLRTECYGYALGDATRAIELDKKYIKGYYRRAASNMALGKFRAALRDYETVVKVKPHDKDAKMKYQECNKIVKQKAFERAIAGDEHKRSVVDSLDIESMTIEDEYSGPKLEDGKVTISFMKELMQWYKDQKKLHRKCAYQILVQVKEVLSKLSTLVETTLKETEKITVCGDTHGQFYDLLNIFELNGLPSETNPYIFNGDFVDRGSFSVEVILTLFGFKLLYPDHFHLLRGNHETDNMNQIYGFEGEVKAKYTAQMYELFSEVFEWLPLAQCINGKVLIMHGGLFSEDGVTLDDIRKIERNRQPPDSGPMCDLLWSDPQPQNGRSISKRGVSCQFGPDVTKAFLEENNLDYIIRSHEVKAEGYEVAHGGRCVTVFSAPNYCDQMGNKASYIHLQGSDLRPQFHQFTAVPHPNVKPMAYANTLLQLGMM
UniProt Q06830: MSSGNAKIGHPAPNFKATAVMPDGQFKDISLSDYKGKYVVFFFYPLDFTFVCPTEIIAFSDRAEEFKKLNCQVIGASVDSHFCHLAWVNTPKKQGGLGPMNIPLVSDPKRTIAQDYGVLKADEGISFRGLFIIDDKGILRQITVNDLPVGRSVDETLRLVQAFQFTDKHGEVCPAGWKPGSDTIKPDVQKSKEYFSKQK
UniProt P49593: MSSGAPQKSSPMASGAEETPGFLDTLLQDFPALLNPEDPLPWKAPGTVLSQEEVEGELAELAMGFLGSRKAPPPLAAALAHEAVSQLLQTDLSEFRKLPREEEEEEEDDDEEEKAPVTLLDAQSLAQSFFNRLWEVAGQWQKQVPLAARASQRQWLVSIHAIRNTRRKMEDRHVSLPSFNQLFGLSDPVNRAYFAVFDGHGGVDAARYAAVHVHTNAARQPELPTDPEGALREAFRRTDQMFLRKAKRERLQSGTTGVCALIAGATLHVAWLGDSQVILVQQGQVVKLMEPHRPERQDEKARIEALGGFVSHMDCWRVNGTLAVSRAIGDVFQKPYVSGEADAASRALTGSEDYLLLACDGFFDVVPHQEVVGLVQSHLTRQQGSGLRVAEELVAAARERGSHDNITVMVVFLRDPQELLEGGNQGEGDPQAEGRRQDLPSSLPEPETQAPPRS
UniProt P30154, whole entry, looked up: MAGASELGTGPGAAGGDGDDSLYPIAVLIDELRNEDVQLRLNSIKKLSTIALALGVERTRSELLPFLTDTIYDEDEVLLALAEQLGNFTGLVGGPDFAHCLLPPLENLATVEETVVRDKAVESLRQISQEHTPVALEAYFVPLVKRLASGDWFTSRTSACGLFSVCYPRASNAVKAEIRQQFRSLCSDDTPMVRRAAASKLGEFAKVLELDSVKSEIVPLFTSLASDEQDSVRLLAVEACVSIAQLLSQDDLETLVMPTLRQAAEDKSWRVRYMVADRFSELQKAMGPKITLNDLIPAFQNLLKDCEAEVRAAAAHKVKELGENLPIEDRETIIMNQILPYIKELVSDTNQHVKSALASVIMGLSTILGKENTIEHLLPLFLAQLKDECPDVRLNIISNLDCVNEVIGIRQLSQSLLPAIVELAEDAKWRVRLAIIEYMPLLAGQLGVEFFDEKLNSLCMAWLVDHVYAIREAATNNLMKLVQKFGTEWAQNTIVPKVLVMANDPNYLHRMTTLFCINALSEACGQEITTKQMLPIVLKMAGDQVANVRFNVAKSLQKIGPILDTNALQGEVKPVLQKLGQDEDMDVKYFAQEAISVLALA
UniProt P07225: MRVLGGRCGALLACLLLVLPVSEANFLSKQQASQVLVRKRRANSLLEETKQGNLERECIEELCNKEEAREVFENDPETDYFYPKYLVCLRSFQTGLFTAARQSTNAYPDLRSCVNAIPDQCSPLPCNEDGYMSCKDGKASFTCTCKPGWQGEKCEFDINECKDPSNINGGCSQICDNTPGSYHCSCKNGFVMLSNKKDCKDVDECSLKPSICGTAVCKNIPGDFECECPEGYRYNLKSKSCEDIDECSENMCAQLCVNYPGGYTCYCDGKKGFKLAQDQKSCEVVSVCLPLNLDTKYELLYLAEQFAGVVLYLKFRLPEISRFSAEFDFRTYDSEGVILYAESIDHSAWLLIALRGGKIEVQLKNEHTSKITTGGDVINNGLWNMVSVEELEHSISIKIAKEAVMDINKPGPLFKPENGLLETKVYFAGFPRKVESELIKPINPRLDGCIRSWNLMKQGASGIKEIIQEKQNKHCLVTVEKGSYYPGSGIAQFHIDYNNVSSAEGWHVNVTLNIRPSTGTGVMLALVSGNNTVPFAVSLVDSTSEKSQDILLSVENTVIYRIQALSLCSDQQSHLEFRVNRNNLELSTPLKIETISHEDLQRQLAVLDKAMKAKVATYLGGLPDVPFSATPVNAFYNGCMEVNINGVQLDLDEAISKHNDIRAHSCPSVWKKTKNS
UniProt Q8WY54: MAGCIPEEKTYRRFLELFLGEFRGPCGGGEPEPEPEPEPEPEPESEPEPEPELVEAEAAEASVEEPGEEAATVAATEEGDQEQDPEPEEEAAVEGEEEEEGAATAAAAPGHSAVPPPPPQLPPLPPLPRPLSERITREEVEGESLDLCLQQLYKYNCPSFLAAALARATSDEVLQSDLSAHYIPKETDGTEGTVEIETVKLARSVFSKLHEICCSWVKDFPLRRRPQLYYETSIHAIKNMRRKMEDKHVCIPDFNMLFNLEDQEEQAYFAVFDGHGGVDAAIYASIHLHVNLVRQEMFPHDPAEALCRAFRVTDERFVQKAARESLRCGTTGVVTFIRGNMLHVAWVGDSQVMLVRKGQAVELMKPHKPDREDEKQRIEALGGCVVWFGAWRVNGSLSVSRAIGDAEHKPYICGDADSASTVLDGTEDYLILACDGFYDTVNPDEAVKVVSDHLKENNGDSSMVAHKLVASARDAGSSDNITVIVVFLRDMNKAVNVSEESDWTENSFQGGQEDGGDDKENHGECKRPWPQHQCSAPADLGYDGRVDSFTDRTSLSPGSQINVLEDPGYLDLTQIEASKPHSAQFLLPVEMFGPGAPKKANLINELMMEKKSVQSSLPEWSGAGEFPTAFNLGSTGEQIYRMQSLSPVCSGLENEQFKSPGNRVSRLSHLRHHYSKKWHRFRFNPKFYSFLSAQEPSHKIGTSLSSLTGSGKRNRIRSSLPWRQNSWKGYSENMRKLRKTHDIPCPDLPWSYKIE
UniProt P11908: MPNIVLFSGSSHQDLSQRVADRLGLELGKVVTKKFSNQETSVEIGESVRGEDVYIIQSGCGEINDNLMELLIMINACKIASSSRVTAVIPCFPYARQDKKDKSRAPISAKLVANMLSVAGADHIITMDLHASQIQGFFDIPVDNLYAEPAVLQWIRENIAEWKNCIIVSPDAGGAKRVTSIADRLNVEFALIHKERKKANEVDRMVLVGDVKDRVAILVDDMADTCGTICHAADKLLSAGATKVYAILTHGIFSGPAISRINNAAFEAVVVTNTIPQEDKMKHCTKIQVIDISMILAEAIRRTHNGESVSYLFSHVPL
UniProt Q6NYC8: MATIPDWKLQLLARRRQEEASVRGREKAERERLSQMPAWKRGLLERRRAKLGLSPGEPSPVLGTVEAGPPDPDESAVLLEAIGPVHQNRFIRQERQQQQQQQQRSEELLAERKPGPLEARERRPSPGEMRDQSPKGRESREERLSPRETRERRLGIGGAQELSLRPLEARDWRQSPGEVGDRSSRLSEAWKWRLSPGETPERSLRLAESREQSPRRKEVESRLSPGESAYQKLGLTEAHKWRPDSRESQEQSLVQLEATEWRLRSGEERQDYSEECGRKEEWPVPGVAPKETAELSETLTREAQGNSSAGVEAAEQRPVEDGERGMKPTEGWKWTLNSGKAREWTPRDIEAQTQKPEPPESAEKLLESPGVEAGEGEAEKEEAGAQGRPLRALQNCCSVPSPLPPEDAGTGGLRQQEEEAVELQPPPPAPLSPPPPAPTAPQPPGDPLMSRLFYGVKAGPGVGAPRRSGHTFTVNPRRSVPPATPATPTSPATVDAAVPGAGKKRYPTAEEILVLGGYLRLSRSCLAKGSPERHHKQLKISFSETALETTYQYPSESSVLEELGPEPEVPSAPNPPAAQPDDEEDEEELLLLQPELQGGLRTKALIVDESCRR
UniProt P30041: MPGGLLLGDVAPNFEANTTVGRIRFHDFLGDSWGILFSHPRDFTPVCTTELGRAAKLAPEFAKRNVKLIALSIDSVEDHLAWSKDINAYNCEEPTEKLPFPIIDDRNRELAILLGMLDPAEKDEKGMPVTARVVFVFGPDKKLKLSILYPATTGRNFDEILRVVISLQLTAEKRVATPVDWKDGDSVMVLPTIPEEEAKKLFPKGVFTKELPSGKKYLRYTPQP
UniProt P62140, whole entry, looked up: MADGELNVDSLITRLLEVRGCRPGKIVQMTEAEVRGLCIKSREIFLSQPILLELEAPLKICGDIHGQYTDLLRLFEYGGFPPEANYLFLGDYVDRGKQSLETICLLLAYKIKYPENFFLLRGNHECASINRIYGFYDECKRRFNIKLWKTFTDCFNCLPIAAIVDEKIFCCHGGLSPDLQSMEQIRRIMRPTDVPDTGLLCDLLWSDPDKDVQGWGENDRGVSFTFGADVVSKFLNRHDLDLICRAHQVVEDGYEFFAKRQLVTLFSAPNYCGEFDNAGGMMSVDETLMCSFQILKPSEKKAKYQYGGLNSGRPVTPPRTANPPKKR

Experiments:
Assay in all cases: log2 fold change, soluble protein after heating vs DMSO (PISA); higher = thermal stabilisation; K562 cells, 10 uM, 30 min; active = over 0.2 and 3.5 SD of the protein, either way, in both replicates (recomputed)
erlotinib = compound: C#Cc1cccc(Nc2ncnc3cc(OCCOC)c(OCCOC)cc23)c1 [erlotinib]
In short: (§1)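 Values are thermal stability changes relative to control samples and are taken from duplicates. They are stated as log2 fold changes. Before quantification by TMTpro 16plex LC-MS/MS with equalised channel sums, K562 cells at 2×10^6 cells/mL were treated with 10 μM compound for 30 min, heated in aliquots for 3 min across 48°C-58°C, pooled, extracted in PBS with 0.5% NP-40 at 4°C, and centrifuged at 21,000xg for 90 min to give the soluble supernatant.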

[1] = compound: C/C(=N\NC(=O)C1=CC(=CC=C1)S(=O)(=O)N2CCOCC2)/C3=C(C=CC(=C3)Cl)O
In short: as §1

[2] = compound: C1=CC(=C(C=C1Cl)C2=NC3=NC=CN=C3C(=N2)NC4=CC=NC=C4)F
In short: as §1

[3] = compound: C1=CC(=CC=C1C2=NC3=C(N2)C=C(C=C3)C(=O)N)OC4=CC=C(C=C4)Cl
In short: as §1

[4] = compound: C1=CC2=C(C=CC(=C2)/C=C\3/C(=O)NC(=NCC4=CC=CS4)S3)N=C1
In short: as §1

[5] = compound: C1=CC2=NC=CN=C2C=C1/C=C/3\C(=O)NC(=O)S3
In short: as §1

[6] = compound: C1=CC=C(C=C1)C2=NC(=C(N2)C3=CC=NC=C3)C4=CC(=C(C=C4)Cl)O
In short: as §1

[7] = compound: C1=CC=C2C(=C1)C3=NNC4=CC=CC(=C43)C2=O
In short: as §1

[8] = compound: C1CCN(C1)C(=O)NC2=CC=CC(=C2)NC3=NC=C(C(=N3)NCCC4=CN=CN4)Br
In short: as §1

[9] = compound: C1CN(CCC1(CC2=CC=C(C=C2)Cl)N)C3=NC=NC4=C3C=CN4
In short: as §1

IRAK-1-4 Inhibitor I = compound: C1COCCN1CCN2C3=CC=CC=C3N=C2NC(=O)C4=CC(=CC=C4)[N+](=O)[O-] [IRAK-1-4 Inhibitor I]
In short: as §1

ibrutinib = compound: C=CC(=O)N1CCC[C@@H](n2nc(-c3ccc(Oc4ccccc4)cc3)c3c(N)ncnc32)C1 [ibrutinib]
In short: as §1

[10] = compound: CC(=O)c1cnc2ccc(-c3cc(Cl)c(O)c(Cl)c3)nc2c1N[C@H]1CC[C@H](CN(C)C)CC1
In short: as §1

ralimetinib = compound: CC(C)(C)Cn1c(N)nc2ccc(-c3[nH]c(C(C)(C)C)nc3-c3ccc(F)cc3)nc21 [ralimetinib]
In short: as §1

[11] = compound: CC(C)(O)CC(=O)NCCn1ccc2ncnc(Nc3ccc(Oc4cccc(C(F)(F)F)c4)c(Cl)c3)c21
In short: as §1

[12] = compound: CC(C)C1=C2N=C(C=C(N2N=C1)NCC3=CC=CC=C3)NCCCCCCN
In short: as §1

[13] = compound: CC(C)C[C@@H](C=O)NC(=O)[C@H](CC(C)C)NC(=O)[C@H](CC(C)C)NC(=O)OCc1ccccc1
In short: as §1

pinometostat = compound: CC(C)N(C[C@H]1O[C@@H](n2cnc3c(N)ncnc32)[C@H](O)[C@@H]1O)[C@H]1C[C@@H](CCc2nc3cc(C(C)(C)C)ccc3[nH]2)C1 [pinometostat]
In short: as §1

[14] = compound: CC1=C(C(CC(=O)N1)C2=CC=C(C=C2)C(F)(F)F)C(=O)NC3=C(C=C4C(=C3)C=NN4)F
In short: as §1

[15] = compound: CC1=C(C2=C(C=C1)C(=O)C3=CC=CC=C3N2CCCN)C
In short: as §1

Measured: log2 fold change

PRDX2 (UniProt P32119)
inactive: erlotinib 0.014 | [1] -0.037 | [2] 0.024 | [3] -0.033 | [4] 0.011 | [5] -0.015 | [6] -0.011 | [7] 0.014 | [8] 0.033 | [9] 0.033 | IRAK-1-4 Inhibitor I 0.049 | ibrutinib -0.008 | [10] -0.064 | ralimetinib -0.016 | [11] 0.017 | [12] 0.01 | [13] -0.025 | pinometostat -0.041 | [14] 0.029 | [15] 0.017

PRPSAP1 isoform 2 (UniProt Q14558)
inactive: erlotinib -0.051 | [1] -0.04 | [2] -0.045 | [3] 0.01 | [4] -0.03 | [5] -0.001 | [6] 0.009 | [7] 0.003 | [8] 0.005 | [9] 0.017 | IRAK-1-4 Inhibitor I 0.02 | ibrutinib 0.018 | [10] 0.031 | ralimetinib -0.018 | [11] 0.04 | [12] 0.082 | [13] -0.025 | pinometostat -0.046 | [14] 0.01 | [15] -0.017

PPM1H (UniProt Q9ULR3)
inactive: erlotinib 0.006 | [1] 0.002 | [2] 0.079 | [3] 0.024 | [4] 0.055 | [5] 0.049 | [6] 0.02 | [7] -0.013 | [8] -0.011 | [9] 0.056 | IRAK-1-4 Inhibitor I -0.001 | ibrutinib -0.013 | [10] -0.012 | ralimetinib -0.029 | [11] -0.072 | [12] 0.017 | [13] -0.023 | pinometostat -0.078 | [14] 0.016 | [15] 0.042

PPP2R2D (UniProt Q66LE6)
inactive: erlotinib -0.013 | [1] -0.02 | [2] 0.137 | [3] -0.065 | [4] 0.171 | [5] 0.111 | [6] 0.027 | [7] -0.008 | [8] 0.059 | [9] -0.039 | IRAK-1-4 Inhibitor I -0.022 | ibrutinib 0.017 | [10] -0.202 | ralimetinib -0.051 | [11] -0.008 | [12] 0.04 | [13] 0.026 | pinometostat -0.005 | [14] 0.029 | [15] -0.04

PPP5C (UniProt P53041)
inactive: erlotinib -0.006 | [1] -0.021 | [2] 0.053 | [3] 0.01 | [4] 0.024 | [5] 0.011 | [6] 0.025 | [7] -0.007 | [8] 0.004 | [9] 0.062 | IRAK-1-4 Inhibitor I 0.041 | ibrutinib -0.006 | [10] 0.036 | ralimetinib 0 | [11] -0.051 | [12] 0.027 | [13] -0.04 | pinometostat -0.02 | [14] -0.038 | [15] 0.005

PRDX1 (UniProt Q06830)
inactive: erlotinib 0.024 | [1] 0.009 | [2] 0.044 | [3] -0.015 | [4] 0.019 | [5] -0.007 | [6] 0.022 | [7] 0.023 | [8] 0.018 | [9] 0.041 | IRAK-1-4 Inhibitor I 0.038 | ibrutinib 0 | [10] -0.028 | ralimetinib -0.048 | [11] 0.007 | [12] 0.035 | [13] -0.017 | pinometostat -0.026 | [14] 0.005 | [15] 0.006

PPWD1 (UniProt Q96BP3)
inactive: erlotinib 0.031 | [1] 0.032 | [2] 0.049 | [3] 0.002 | [4] 0.037 | [5] 0.038 | [6] 0.013 | [7] -0.026 | [8] -0.006 | [9] 0.03 | IRAK-1-4 Inhibitor I 0.012 | ibrutinib 0.02 | [10] 0.007 | ralimetinib -0.012 | [11] -0.037 | [12] 0.005 | [13] -0.028 | pinometostat -0.049 | [14] -0.004 | [15] 0.149

Reprinted from the entries so far (2 entries):
PRDX2 (UniProt P32119)
inactive: erlotinib 0.014 | [1] -0.037 | [2] 0.024 | [3] -0.033 | [4] 0.011 | [5] -0.015 | [6] -0.011 | [7] 0.014 | [8] 0.033 | [9] 0.033 | IRAK-1-4 Inhibitor I 0.049 | ibrutinib -0.008 | [10] -0.064 | ralimetinib -0.016 | [11] 0.017 | [12] 0.01 | [13] -0.025 | pinometostat -0.041 | [14] 0.029 | [15] 0.017

PRPSAP1 isoform 2 (UniProt Q14558)
inactive: erlotinib -0.051 | [1] -0.04 | [2] -0.045 | [3] 0.01 | [4] -0.03 | [5] -0.001 | [6] 0.009 | [7] 0.003 | [8] 0.005 | [9] 0.017 | IRAK-1-4 Inhibitor I 0.02 | ibrutinib 0.018 | [10] 0.031 | ralimetinib -0.018 | [11] 0.04 | [12] 0.082 | [13] -0.025 | pinometostat -0.046 | [14] 0.01 | [15] -0.017

Continued.

PPM1F (UniProt P49593)
inactive: erlotinib -0.012 | [1] 0.054 | [2] 0.073 | [3] 0.077 | [4] 0 | [5] 0.011 | [6] -0.026 | [7] 0.032 | [8] 0.016 | [9] -0.118 | IRAK-1-4 Inhibitor I 0.008 | ibrutinib -0.019 | [10] -0.002 | ralimetinib -0.001 | [11] -0.039 | [12] -0.106 | [13] 0.034 | pinometostat -0.022 | [14] -0.035 | [15] -0.042

PPP2R1B isoform 2 (UniProt P30154)
inactive: erlotinib 0.028 | [1] 0 | [2] 0.057 | [3] -0.004 | [4] -0.023 | [5] 0.089 | [6] 0.026 | [7] 0.017 | [8] 0.021 | [9] -0.012 | IRAK-1-4 Inhibitor I -0.023 | ibrutinib -0.076 | [10] 0.057 | ralimetinib 0.026 | [11] -0.083 | [12] -0.069 | [13] -0.056 | pinometostat -0.02 | [14] 0.006 | [15] -0.006

PROS1 (UniProt P07225)
inactive: erlotinib -0.014 | [1] -0.062 | [2] -0.001 | [3] 0.047 | [4] -0.01 | [5] 0.021 | [6] 0.014 | [7] -0.061 | [8] 0 | [9] 0.038 | IRAK-1-4 Inhibitor I -0.011 | ibrutinib 0.042 | [10] -0.022 | ralimetinib 0.037 | [11] 0.04 | [12] 0.039 | [13] -0.038 | pinometostat 0.038 | [14] 0.051 | [15] -0.108

PPM1E (UniProt Q8WY54)
inactive: erlotinib -0.024 | [1] 0.059 | [2] 0.156 | [3] 0.045 | [4] 0.051 | [5] 0.058 | [6] -0.017 | [7] -0.127 | [8] -0.03 | [9] -0.034 | IRAK-1-4 Inhibitor I 0.046 | ibrutinib -0.001 | [10] 0.092 | ralimetinib -0.027 | [11] -0.064 | [12] -0.084 | [13] -0.008 | pinometostat 0.003 | [14] -0.018 | [15] 0.037

PRPS2 isoform 2 (UniProt P11908)
inactive: erlotinib -0.05 | [1] 0.014 | [2] 0.023 | [3] 0.002 | [4] 0.04 | [5] 0 | [6] -0.023 | [7] -0.008 | [8] 0.012 | [9] -0.01 | IRAK-1-4 Inhibitor I -0.019 | ibrutinib 0.003 | [10] -0.006 | ralimetinib -0.074 | [11] -0.021 | [12] 0.07 | [13] -0.056 | pinometostat -0.01 | [14] 0.012 | [15] 0.065

PPP1R18 (UniProt Q6NYC8)
inactive: erlotinib -0.031 | [1] 0.01 | [2] -0.019 | [3] 0 | [4] -0.011 | [5] 0.061 | [6] -0.032 | [7] -0.011 | [8] -0.018 | [9] -0.046 | IRAK-1-4 Inhibitor I -0.07 | ibrutinib 0.007 | [10] -0.184 | ralimetinib -0.035 | [11] 0.031 | [12] -0.005 | [13] 0.03 | pinometostat -0.074 | [14] -0.015 | [15] 0.034

PRDX6 (UniProt P30041)
inactive: erlotinib 0.048 | [1] 0.01 | [2] 0.012 | [3] -0.007 | [4] 0.043 | [5] -0.001 | [6] -0.013 | [7] 0.023 | [8] 0.032 | [9] 0.038 | IRAK-1-4 Inhibitor I 0.041 | ibrutinib 0 | [10] -0.029 | ralimetinib -0.042 | [11] 0.003 | [12] -0.033 | [13] -0.016 | pinometostat -0.041 | [14] -0.007 | [15] 0.034

PPP1CB (UniProt P62140)
inactive: erlotinib 0.059 | [1] 0.05 | [2] -0.025 | [3] 0.034 | [4] -0.021 | [5] 0.027 | [6] -0.021 | [7] -0.005 | [8] -0.024 | [9] 0 | IRAK-1-4 Inhibitor I -0.008 | ibrutinib -0.028 | [10] -0.072 | ralimetinib -0.053 | [11] -0.02 | [12] 0.046 | [13] -0.01 | pinometostat -0.027 | [14] -0.037 | [15] -0.044

PRMT9 (UniProt Q6P2P2)
inactive: erlotinib 0.06 | [1] -0.015 | [2] 0.003 | [3] 0.024 | [4] 0.002 | [5] 0.05 | [6] -0.07 | [7] 0.014 | [8] -0.031 | [9] 0.051 | IRAK-1-4 Inhibitor I 0.033 | ibrutinib -0.062 | [10] 0.034 | ralimetinib 0.006 | [11] 0.167 | [12] -0.025 | [13] 0.061 | pinometostat 0.035 | [14] -0.116 | [15] 0.06
